Measurements taken from PubChem BioAssay AID504444 (National Center for Advancing Translational Sciences (NCATS), 2011).
The whole screen tested about 360,000 compounds, of which about 7,500 (2.1%) were called active. The inconclusive results got no clear call from the source; some entries with a clear call stand among them for comparison. The call rests on the fitted dose curve; in most records, active means well fitted inhibition curve with a large enough effect; inconclusive means small, poorly fitted or top-dose-only effect, or effect the other way; inactive means flat fitted curve, though single readings scatter. Potencies of inconclusive entries are doubtful fits and often do not repeat.
Potency means the concentration at half of the fitted maximal effect.

Test: Nrf2 qHTS screen for inhibitors; further: nearly all actives have a fitted effect of over 60% in size
Details: A549 ARE-Fluc reporter, luciferase luminescence, 18-24 h; series mostly up to 46 µM
Summary of the method: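 Reporter: ARE-Fluc in A549. Exposure: 18-24 h, 37 °C, 5% CO2, 5% FBS OPTI-MEM. Readouts: fluorescent cytotoxicity (CellTiter-Fluor), then luminescent Nrf2 signal after BugLite.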
In the case of `CCOc1c2ccoc2nc2c(OC)c(OC)ccc12`, the Potency is reported as “inactive”. For `C#CC(=O)CC1(CN(Cc2ccccc2)C(=O)OC(C)(C)C)CCCCC1`, the Potency was inconclusive: 29.1 µM [falling, single point]. With `COc1ccc(Br)cc1CN1CCSCC1` the Potency was inconclusive: 6.51 µM [falling, single point]. For `O=C1c2ccccc2C(=O)N1c1noc2ccccc12`, the Potency was inconclusive: 5.8 µM [activator, full curve]. With `O=C(COc1ccc2c(-c3ccccc3)cc(=O)oc2c1)Nc1cccnc1` the Potency was active: 2.31 µM. In the case of `COc1ccc(NC(=O)c2cc3c(Cl)nc4ccccc4c3s2)c(OC)c1`, the Potency is reported as “inactive”. With `COc1ccc([C@H]2CC(=O)C=C(c3ccc(SC)cc3)C2)cc1` the Potency was inconclusive: 29.1 µM [activator, single point]. With `O=C(Nc1ccc2nc(SCC(=O)N3CCOCC3)sc2c1)c1cccc(Cl)c1` the Potency was active: 23.1 µM. In the case of `Cc1c(C(=O)OCCOc2ccccc2)[nH]c2c1C(=O)CC(c1ccccc1)C2` (configuration not stated), the Potency is reported as inconclusive: 1.84 µM [activator, partial curve]. In the case of `CCn1c(C)c(CCC(=O)O)c(=O)n2nc(-c3ccccc3OC)cc12`, the Potency is reported as inconclusive: 5.17 µM [activator, partial curve, poor fit]. In the case of `CCOc1ccccc1CNC(=O)C1CCN(C(=O)N2CC(CC)Oc3ccc(C)cc32)CC1` (configuration not stated), the Potency is reported as inconclusive: 11.6 µM [falling, partial curve]. For `CS(=O)(=O)Nc1cccc(C2=NN(C(=O)c3cccc(F)c3)C(c3cccs3)C2)c1` (configuration not stated), the Potency was inconclusive: 20.6 µM [falling, single point]. With `O=C(Nc1ccc2c(c1)OCO2)c1cc(-c2ccc(O)cc2)on1` the Potency was inconclusive: 16.4 µM [activator, partial curve, poor fit]. For `CN(C)S(=O)(=O)c1ccc(C(=O)Nc2nnc(-c3cccs3)o2)cc1`, the Potency was inconclusive: 18.4 µM [falling, single point]. With `Cc1ccc(S(=O)(=O)Nc2ccc3ccccc3c2[N+](=O)[O-])cc1` the Potency was inconclusive: 6.51 µM [falling, single point]. For `O=C(CNC(=O)c1cccc(Cl)c1)OC(C(=O)Nc1cc(C(F)(F)F)ccc1Cl)c1ccccc1` (configuration not stated), the Potency was active: 23.1 µM. In the case of `Cc1cccc(C(=O)NNC(=O)c2c(O)c3ccccc3n(C)c2=O)c1`, the Potency is reported as inconclusive: 29.1 µM [falling, single point]. In the case of `O=C(Cn1c(SCCOc2ccccc2)nc2ccccc21)N1CCOCC1`, the Potency is reported as inconclusive: 29.1 µM [activator, single point]. In the case of `CC(C)Oc1ccc(C(=O)NCc2ccco2)cc1`, the Potency is reported as inconclusive: 2.59 µM [activator, full curve]. With `CC(C)(C)NC(=O)NC(=O)COC(=O)c1cc(=O)[nH]c2ccccc12` the Potency was inconclusive: 3.66 µM [falling, partial curve, poor fit]. With `CC1CN(C(=O)c2cc(S(=O)(=O)N3CCCCC3)ccc2Cl)CC(C)O1` (configuration not stated) the Potency was inconclusive: 2.91 µM [falling, partial curve, poor fit]. In the case of `CCn1c2ccccc2c2cc(NC(=O)CSc3nnc(-c4cccc(F)c4)o3)ccc21`, the Potency is reported as inconclusive: 29.1 µM [falling, single point]. For `O=c1[nH]cccc1-c1nc2ccccc2n1Cc1ccc(F)cc1`, the Potency was inconclusive: 25.9 µM [falling, single point]. For `C[n+]1ccc(/C=C/c2cccs2)cc1`, the Potency was active: 2.31 µM. With `Fc1ccccc1N1CCN(C(c2cccs2)c2nnnn2CCc2ccccc2)CC1` (configuration not stated) the Potency was inconclusive: 16.4 µM [falling, partial curve, poor fit]. With `CN(C)c1ccc(-c2n(C)c3ccccc3[n+]2C)cc1` the Potency was active: 0.291 µM. In the case of `O=C(NCc1ccc2c(c1)OCO2)c1ccc(COc2cc(Cl)ccc2Cl)o1`, the Potency is reported as inconclusive: 23.1 µM [falling, single point]. For `COc1ccc(CCNC(=O)CCn2c(=O)c3ccccc3n(Cc3cc(C)ccc3C)c2=O)cc1OC`, the Potency was “inactive”. With `O=C(O)c1cnn(-c2ccccc2)c1-c1ccccc1` the Potency was inconclusive: 0.0052 µM [activator, full curve, poor fit]. With `CCOC(=O)c1c(C)[nH]c(C(=O)NNC(=O)c2ccc(Br)cc2)c1C` the Potency was inconclusive: 5.8 µM [activator, full curve, poor fit]. With `O=C(Nc1ccc(OCc2ccccc2)cc1)c1ccccc1` the Potency was inconclusive: 1.64 µM [activator, full curve]. For `COc1cc(C(=O)Nc2cccc(NC(=O)c3ccccc3)c2)cc(OC)c1OC`, the Potency was inconclusive: 32.6 µM [falling, partial curve, poor fit]. For `CCn1c(=O)c(C(=O)NNC(=O)c2ccccc2F)c(O)c2ccccc21`, the Potency was inconclusive: 11.6 µM [falling, single point]. In the case of `NC(=O)c1sc2nc3c(c(-c4ccco4)c2c1N)CCCC3`, the Potency is reported as inconclusive: 14.6 µM [falling, single point]. For `COc1cccc(CNC(=O)CCc2c(C)nc3c(c(C)nn3-c3ccc(C)c(C)c3)c2C)c1`, the Potency was “inactive”. In the case of `O=C(Nc1ccc(S(=O)(=O)N2CCN(Cc3ccccc3)CC2)cc1)c1cnccn1`, the Potency is reported as active: 4.11 µM. With `C/C(=N\Nc1cc(-c2ccccc2)nc(-c2ccccc2)n1)c1ccc(O)c(C)c1` the Potency was inconclusive: 14.6 µM [falling, partial curve]. In the case of `Cn1cnnc1SCC(=O)Nc1sc2c(c1C#N)CCCCC2`, the Potency is reported as inconclusive: 6.51 µM [activator, single point]. With `C=CCn1c(C)cc(C(=O)COc2ncnc3sccc23)c1C` the Potency was inconclusive: 0.58 µM [activator, full curve, poor fit]. For `Cc1cccc(N2CCN(CCCNc3ncnc4onc(-c5ccc(Cl)cc5)c34)CC2C)c1` (configuration not stated), the Potency was inconclusive: 4.11 µM [activator, partial curve, poor fit]. In the case of `CC(C)(C)c1ccc(C(=O)Nc2nnc(SCC(=O)NCC3CCCO3)s2)cc1` (configuration not stated), the Potency is reported as active: 10.3 µM. With `CCOc1cc(Cl)c(S(=O)(=O)NCCCn2ccnc2)cc1Cl` the Potency was active: 16.4 µM. With `O=C(CCN1C(=O)C2C3C=CC(C3)C2C1=O)NCCc1ccccc1` (configuration not stated) the Potency was inconclusive: 29.1 µM [activator, single point]. With `COc1ccc(OC)c(S(=O)(=O)N2CCCC(C(=O)N3CCOCC3)C2)c1` (configuration not stated) the Potency was inconclusive: 6.51 µM [falling, single point]. With `CN(CC(=O)Nc1cccc(S(=O)(=O)N2CCOCC2)c1)CC(=O)Nc1ccc(Cl)c(C(F)(F)F)c1` the Potency was active: 20.6 µM. For `O=C(CSc1nc2ccccc2o1)Nc1cc(C(F)(F)F)ccc1N1CCOCC1`, the Potency was inconclusive: 23.1 µM [falling, single point]. For `COC(=O)c1c(NC(NC(C)=O)C(Cl)(Cl)Cl)sc2c1CCCC2` (configuration not stated), the Potency was active: 20.6 µM. In the case of `CCc1cccc2c(C(=O)CSc3nnc(C4CC4)o3)c[nH]c12`, the Potency is reported as inconclusive: 0.0052 µM [falling, full curve, poor fit]. With `CC(=NNC(=O)c1cccs1)c1ccc2c(c1)OCCO2` the Potency was “inactive”. For `O=[N+]([O-])c1ccccc1NCc1c(O)ccc2ccccc12`, the Potency was “inactive”. With `O=C(c1cc(-c2ccccc2)nn1-c1ccccc1)N1CCN(S(=O)(=O)c2ccc(F)cc2)CC1` the Potency was inconclusive: 16.4 µM [falling, single point]. In the case of `CCc1cccc(C)c1NS(=O)(=O)c1cc2[nH]c(=O)c(=O)[nH]c2cc1C`, the Potency is reported as inconclusive: 25.9 µM [activator, partial curve, poor fit]. In the case of `Cc1ccc2nc(N3CCN(c4cccc(C(F)(F)F)c4)CC3)c3nnnn3c2c1`, the Potency is reported as inconclusive: 29.1 µM [activator, single point]. With `CCN(CC)c1ccc(NC(=O)CCS(=O)(=O)c2cc3c(cc2Cl)NC(=O)CO3)c(C)c1` the Potency was active: 16.4 µM. For `CCOC(=O)c1cc(-c2ccc(N)cc2)sc1N`, the Potency was inconclusive: 6.51 µM [activator, single point]. With `O=C(NC1=NCCS1)c1ccc(Cl)cc1` the Potency was inconclusive: 4.11 µM [activator, single point]. With `Cc1ccc(S(=O)(=O)c2ccc(Oc3cccc(C)c3)cc2)cc1` the Potency was inconclusive: 1.16 µM [falling, single point]. For `CC(C)c1nc2sc3c(SCCN(C)C)ncnc3c2c2c1CCC2`, the Potency was “inactive”. In the case of `Cc1cc(-c2ccc(C)c(S(=O)(=O)Nc3ccc(S(N)(=O)=O)cc3)c2)on1`, the Potency is reported as “inactive”. With `Cc1ccc2nc(-c3ccc(Cl)c(NC(=O)COc4cccc(C)c4C)c3)oc2c1` the Potency was inconclusive: 10.3 µM [activator, partial curve]. With `Cc1cccc(NC(=O)c2ccc3snnc3c2)c1` the Potency was inconclusive: 9.2 µM [activator, partial curve]. With `Cc1cccc(-c2nc3cc(NC(=O)C4CCCO4)ccc3o2)c1` (configuration not stated) the Potency was inconclusive: 32.6 µM [falling, single point]. With `C=CCn1c(SCC(=O)N2CC(=O)Nc3ccccc32)nc2scc(-c3ccccc3)c2c1=O` the Potency was inconclusive: 25.9 µM [falling, single point]. In the case of `O=C(NCc1cccnc1)c1ccc(COc2ccc(Cl)cc2)cc1`, the Potency is reported as active: 23.1 µM. For `CC(C)(C)OC(=O)N(Cc1ccccc1)Cc1ccc(OCc2cccc(NC(=O)C3CC3)c2)cc1`, the Potency was inconclusive: 18.4 µM [falling, single point]. In the case of `N#C/C(=C\c1cn(CCOc2ccccc2)c2ccccc12)C(=O)NCC1CCCO1` (configuration not stated), the Potency is reported as “inactive”. For `O=C(Nc1cccc(Cl)c1)C1CCN(C(=O)c2cccs2)CC1`, the Potency was inconclusive: 36.6 µM [falling, single point].
